# Screening data

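HNT-34 acute myeloid leukemia cells exposed to compounds for 48 h, with cell viability measured by CellTiter-Glo luminescence.
Each compound was run as a dilution series that mostly topped out at 46 µM.
The value is the concentration giving half of the fitted maximal loss of viability; smaller values mean stronger inhibitors.
Calls come from the fitted dose curve, and inconclusive marks inhibition that is small, poorly fitted or seen only at the highest dose.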

Values are in µM.
Every entry below has the call inconclusive.
Only part of the assay is shown, chiefly results filed as inconclusive.
Potencies fitted to partial, single-point or poorly fitting curves are rough.

- CNC(=O)c1ccc(N2C(=S)N(c3ccc(C#N)c(C(F)(F)F)c3)C(=O)C2(C)C)cc1F | potency 37.2 µM (inhibitor, single point)
- O=C(Cc1cccc(OC(F)(F)F)c1)Nc1ccc(CCCCc2nnc(NC(=O)Cc3ccccn3)s2)nn1 | potency 1.481 µM (inhibitor, partial curve, poor fit)
- CC1=C(/C=C/C(C)=C/C=C/C(C)=C/C(=O)Nc2ccc(O)cc2)C(C)(C)CCC1 | potency 16.62 µM (inhibitor, partial curve, poor fit)
- CNCc1ccc(-c2[nH]c3cc(F)cc4c3c2CCNC4=O)cc1 | potency 9.344 µM (inhibitor, partial curve)
- Cc1cccc(-c2[nH]ncc2-c2ccc(F)c(-c3cnn(CCO)c3)c2)n1 | potency 33.15 µM (inhibitor, single point)
- Cc1cc2c(F)c(Oc3ncnn4cc(OC[C@@H](C)O)c(C)c34)ccc2[nH]1 | potency 23.47 µM (inhibitor, partial curve)
- COC1CCN(C(=O)c2cc(Cc3n[nH]c(=O)c4ccccc34)ccc2F)CC1 | potency 11.76 µM (inhibitor, partial curve)
- N#CC1(c2ccc(NC(=O)c3cccnc3NCc3ccncc3)cc2)CCCC1 | potency 18.64 µM (inhibitor, partial curve)
- CCc1ccc(N(CC(C)C)S(=O)(=O)c2ccc(OCC3CCOCC3)c(CO)c2)cc1 | potency 29.55 µM (inhibitor, single point)
- CCc1nc(-c2cccc(C)c2)c(-c2ccnc(NC(=O)c3ccccc3)c2)s1 | potency 33.15 µM (inhibitor, single point)
- CN(C)c1ccc(C2Nc3ccc4ccccc4c3C3=C2C(=O)CC(C)(C)C3)cc1Br (stereo not given) | potency 37.2 µM (inhibitor, single point)
- NS(=O)(=O)Oc1ccc2c3c(c(=O)oc2c1)CCCCC3 | potency 37.2 µM (inhibitor, partial curve, poor fit)
- O=C(O)c1ccc(-c2c[nH]c3ncc(-c4ccccc4)cc23)cc1C1CCCC1 | potency 18.64 µM (inhibitor, partial curve, poor fit)
- CN1CCN(C2CCC(n3cc(-c4ccc(Oc5ccccc5)cc4)c4c(N)ncnc43)CC2)CC1 (stereo not given) | potency 0.5254 µM (inhibitor, full curve, poor fit)
- Cn1cc(-c2ccc(-c3cncc(Cl)c3N3CCC4(CCNC4=O)CC3)cc2)cn1 | potency 26.33 µM (inhibitor, partial curve, poor fit)
- Cn1cc(-c2ccc3c(c2)CCN3C(=O)Cc2cccc(C(F)(F)F)c2)c2c(N)ncnc21 | potency 23.47 µM (inhibitor, single point)

The last 2 entries again:

Cn1cc(-c2ccc(-c3cncc(Cl)c3N3CCC4(CCNC4=O)CC3)cc2)cn1 gave potency 26.33 µM (inhibitor, partial curve, poor fit).
Cn1cc(-c2ccc3c(c2)CCN3C(=O)Cc2cccc(C(F)(F)F)c2)c2c(N)ncnc21 gave potency 23.47 µM (inhibitor, single point).

From PubChem BioAssay record AID2202234 (NCATS, 2025).